No constants are given. Whether binding was seen depends on the method and setting. In cells and extracts the contact can be indirect. Some binding calls cover weakened binding; strength is not graded here. Where a sequence is shown, tags or fusion partners need not be part of it. Blank lines part the entries; values can stand above or below the molecule they belong to.
Legend:
[1] = target: T1, USP40-V5 (in HEK293 cells) (human) (UniProt Q9NVE5); assay: co-IP; HEK293 cells cotransfected with USP40-V5 and HA-tagged N- or C-terminal deletion mutants of HSP90β for 48 h; IP with anti-V5, immunoblot with anti-HA
T1 sequence: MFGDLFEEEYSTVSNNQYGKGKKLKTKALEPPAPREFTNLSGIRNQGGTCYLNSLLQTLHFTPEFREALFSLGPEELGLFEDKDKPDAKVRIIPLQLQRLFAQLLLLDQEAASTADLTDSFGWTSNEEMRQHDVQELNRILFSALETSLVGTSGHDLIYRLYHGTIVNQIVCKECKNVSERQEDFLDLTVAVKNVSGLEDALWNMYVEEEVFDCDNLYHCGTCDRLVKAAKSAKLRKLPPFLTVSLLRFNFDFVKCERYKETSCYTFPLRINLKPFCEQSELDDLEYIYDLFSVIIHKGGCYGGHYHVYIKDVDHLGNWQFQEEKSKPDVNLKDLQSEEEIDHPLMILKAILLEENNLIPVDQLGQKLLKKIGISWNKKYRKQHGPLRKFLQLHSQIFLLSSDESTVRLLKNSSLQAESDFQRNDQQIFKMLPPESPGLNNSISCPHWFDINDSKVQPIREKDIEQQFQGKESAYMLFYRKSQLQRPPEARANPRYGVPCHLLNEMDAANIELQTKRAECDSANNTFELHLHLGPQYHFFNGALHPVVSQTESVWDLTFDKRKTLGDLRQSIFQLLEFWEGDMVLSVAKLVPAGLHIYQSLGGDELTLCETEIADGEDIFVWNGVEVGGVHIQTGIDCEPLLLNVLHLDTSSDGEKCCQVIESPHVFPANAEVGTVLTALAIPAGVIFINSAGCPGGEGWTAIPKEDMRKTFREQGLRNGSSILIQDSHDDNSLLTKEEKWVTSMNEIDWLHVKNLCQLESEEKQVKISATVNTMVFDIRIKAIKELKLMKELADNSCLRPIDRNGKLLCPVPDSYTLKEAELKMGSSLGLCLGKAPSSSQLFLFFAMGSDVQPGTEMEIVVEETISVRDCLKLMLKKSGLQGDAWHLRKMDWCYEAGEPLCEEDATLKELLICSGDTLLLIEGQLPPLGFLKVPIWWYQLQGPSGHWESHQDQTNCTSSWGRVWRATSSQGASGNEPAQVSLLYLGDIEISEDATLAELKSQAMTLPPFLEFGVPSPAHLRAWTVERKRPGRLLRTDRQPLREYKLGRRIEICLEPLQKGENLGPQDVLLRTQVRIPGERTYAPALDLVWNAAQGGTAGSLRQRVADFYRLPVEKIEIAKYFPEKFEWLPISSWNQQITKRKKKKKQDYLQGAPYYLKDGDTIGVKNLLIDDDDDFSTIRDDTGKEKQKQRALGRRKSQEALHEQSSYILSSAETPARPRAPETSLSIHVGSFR

[2] = target: Heat shock protein HSP 90-beta (endogenous, HLMVEC) (human (endogenous in HLMVEC)) (UniProt P08238); assay: co-IP; HLMVEC lysates (untransfected, or transfected with empty vector or Flag-USP40); IP with anti-USP40 or anti-HSP90β antibody, immunoblot; cells untreated or treated with LPS (0.2 μg/ml, 30 min or 1 h) or TNFα (10 ng/ml, 30 min)
[3] = target: HA-tagged HSP90β^∆402-406 (UniProt P08238); assay: co-IP; HEK293 cells cotransfected with Flag-USP40 and HA-tagged HSP90β (wild type or mutants) for 48 h; IP with anti-HA, immunoblot with the indicated antibodies
[4] = target: HA-tagged dominant-negative (D88N) HSP90β mutant (UniProt P08238); assay: as above
[5] = target: HA-tagged wild-type HSP90β (UniProt P08238); assay: as above

B1: USP40 (endogenous, HLMVEC) (enzyme, UniProt Q9NVE5 1-1235)
chain: MFGDLFEEEYSTVSNNQYGKGKKLKTKALEPPAPREFTNLSGIRNQGGTCYLNSLLQTLHFTPEFREALFSLGPEELGLFEDKDKPDAKVRIIPLQLQRLFAQLLLLDQEAASTADLTDSFGWTSNEEMRQHDVQELNRILFSALETSLVGTSGHDLIYRLYHGTIVNQIVCKECKNVSERQEDFLDLTVAVKNVSGLEDALWNMYVEEEVFDCDNLYHCGTCDRLVKAAKSAKLRKLPPFLTVSLLRFNFDFVKCERYKETSCYTFPLRINLKPFCEQSELDDLEYIYDLFSVIIHKGGCYGGHYHVYIKDVDHLGNWQFQEEKSKPDVNLKDLQSEEEIDHPLMILKAILLEENNLIPVDQLGQKLLKKIGISWNKKYRKQHGPLRKFLQLHSQIFLLSSDESTVRLLKNSSLQAESDFQRNDQQIFKMLPPESPGLNNSISCPHWFDINDSKVQPIREKDIEQQFQGKESAYMLFYRKSQLQRPPEARANPRYGVPCHLLNEMDAANIELQTKRAECDSANNTFELHLHLGPQYHFFNGALHPVVSQTESVWDLTFDKRKTLGDLRQSIFQLLEFWEGDMVLSVAKLVPAGLHIYQSLGGDELTLCETEIADGEDIFVWNGVEVGGVHIQTGIDCEPLLLNVLHLDTSSDGEKCCQVIESPHVFPANAEVGTVLTALAIPAGVIFINSAGCPGGEGWTAIPKEDMRKTFREQGLRNGSSILIQDSHDDNSLLTKEEKWVTSMNEIDWLHVKNLCQLESEEKQVKISATVNTMVFDIRIKAIKELKLMKELADNSCLRPIDRNGKLLCPVPDSYTLKEAELKMGSSLGLCLGKAPSSSQLFLFFAMGSDVQPGTEMEIVVEETISVRDCLKLMLKKSGLQGDAWHLRKMDWCYEAGEPLCEEDATLKELLICSGDTLLLIEGQLPPLGFLKVPIWWYQLQGPSGHWESHQDQTNCTSSWGRVWRATSSQGASGNEPAQVSLLYLGDIEISEDATLAELKSQAMTLPPFLEFGVPSPAHLRAWTVERKRPGRLLRTDRQPLREYKLGRRIEICLEPLQKGENLGPQDVLLRTQVRIPGERTYAPALDLVWNAAQGGTAGSLRQRVADFYRLPVEKIEIAKYFPEKFEWLPISSWNQQITKRKKKKKQDYLQGAPYYLKDGDTIGVKNLLIDDDDDFSTIRDDTGKEKQKQRALGRRKSQEALHEQSSYILSSAETPARPRAPETSLSIHVGSFR
- binding [2]: binds

B2: Flag-USP40 (in HLMVECs) (enzyme, UniProt Q9NVE5 1-1235)
chain: MFGDLFEEEYSTVSNNQYGKGKKLKTKALEPPAPREFTNLSGIRNQGGTCYLNSLLQTLHFTPEFREALFSLGPEELGLFEDKDKPDAKVRIIPLQLQRLFAQLLLLDQEAASTADLTDSFGWTSNEEMRQHDVQELNRILFSALETSLVGTSGHDLIYRLYHGTIVNQIVCKECKNVSERQEDFLDLTVAVKNVSGLEDALWNMYVEEEVFDCDNLYHCGTCDRLVKAAKSAKLRKLPPFLTVSLLRFNFDFVKCERYKETSCYTFPLRINLKPFCEQSELDDLEYIYDLFSVIIHKGGCYGGHYHVYIKDVDHLGNWQFQEEKSKPDVNLKDLQSEEEIDHPLMILKAILLEENNLIPVDQLGQKLLKKIGISWNKKYRKQHGPLRKFLQLHSQIFLLSSDESTVRLLKNSSLQAESDFQRNDQQIFKMLPPESPGLNNSISCPHWFDINDSKVQPIREKDIEQQFQGKESAYMLFYRKSQLQRPPEARANPRYGVPCHLLNEMDAANIELQTKRAECDSANNTFELHLHLGPQYHFFNGALHPVVSQTESVWDLTFDKRKTLGDLRQSIFQLLEFWEGDMVLSVAKLVPAGLHIYQSLGGDELTLCETEIADGEDIFVWNGVEVGGVHIQTGIDCEPLLLNVLHLDTSSDGEKCCQVIESPHVFPANAEVGTVLTALAIPAGVIFINSAGCPGGEGWTAIPKEDMRKTFREQGLRNGSSILIQDSHDDNSLLTKEEKWVTSMNEIDWLHVKNLCQLESEEKQVKISATVNTMVFDIRIKAIKELKLMKELADNSCLRPIDRNGKLLCPVPDSYTLKEAELKMGSSLGLCLGKAPSSSQLFLFFAMGSDVQPGTEMEIVVEETISVRDCLKLMLKKSGLQGDAWHLRKMDWCYEAGEPLCEEDATLKELLICSGDTLLLIEGQLPPLGFLKVPIWWYQLQGPSGHWESHQDQTNCTSSWGRVWRATSSQGASGNEPAQVSLLYLGDIEISEDATLAELKSQAMTLPPFLEFGVPSPAHLRAWTVERKRPGRLLRTDRQPLREYKLGRRIEICLEPLQKGENLGPQDVLLRTQVRIPGERTYAPALDLVWNAAQGGTAGSLRQRVADFYRLPVEKIEIAKYFPEKFEWLPISSWNQQITKRKKKKKQDYLQGAPYYLKDGDTIGVKNLLIDDDDDFSTIRDDTGKEKQKQRALGRRKSQEALHEQSSYILSSAETPARPRAPETSLSIHVGSFR
- binding [2]: binds

Next, values leading:

- binding [1]: no binding
Molecule: HA-tagged N-terminal fragment (1-325 aa) of HSP90β (from UniProt P08238 1-325) (domain or fragment)

- binding [3]: binds
- binding [4]: binds
- binding [5]: binds
B3: Flag-USP40 (in HEK293 cells) (enzyme, UniProt Q9NVE5 1-1235)
chain: MFGDLFEEEYSTVSNNQYGKGKKLKTKALEPPAPREFTNLSGIRNQGGTCYLNSLLQTLHFTPEFREALFSLGPEELGLFEDKDKPDAKVRIIPLQLQRLFAQLLLLDQEAASTADLTDSFGWTSNEEMRQHDVQELNRILFSALETSLVGTSGHDLIYRLYHGTIVNQIVCKECKNVSERQEDFLDLTVAVKNVSGLEDALWNMYVEEEVFDCDNLYHCGTCDRLVKAAKSAKLRKLPPFLTVSLLRFNFDFVKCERYKETSCYTFPLRINLKPFCEQSELDDLEYIYDLFSVIIHKGGCYGGHYHVYIKDVDHLGNWQFQEEKSKPDVNLKDLQSEEEIDHPLMILKAILLEENNLIPVDQLGQKLLKKIGISWNKKYRKQHGPLRKFLQLHSQIFLLSSDESTVRLLKNSSLQAESDFQRNDQQIFKMLPPESPGLNNSISCPHWFDINDSKVQPIREKDIEQQFQGKESAYMLFYRKSQLQRPPEARANPRYGVPCHLLNEMDAANIELQTKRAECDSANNTFELHLHLGPQYHFFNGALHPVVSQTESVWDLTFDKRKTLGDLRQSIFQLLEFWEGDMVLSVAKLVPAGLHIYQSLGGDELTLCETEIADGEDIFVWNGVEVGGVHIQTGIDCEPLLLNVLHLDTSSDGEKCCQVIESPHVFPANAEVGTVLTALAIPAGVIFINSAGCPGGEGWTAIPKEDMRKTFREQGLRNGSSILIQDSHDDNSLLTKEEKWVTSMNEIDWLHVKNLCQLESEEKQVKISATVNTMVFDIRIKAIKELKLMKELADNSCLRPIDRNGKLLCPVPDSYTLKEAELKMGSSLGLCLGKAPSSSQLFLFFAMGSDVQPGTEMEIVVEETISVRDCLKLMLKKSGLQGDAWHLRKMDWCYEAGEPLCEEDATLKELLICSGDTLLLIEGQLPPLGFLKVPIWWYQLQGPSGHWESHQDQTNCTSSWGRVWRATSSQGASGNEPAQVSLLYLGDIEISEDATLAELKSQAMTLPPFLEFGVPSPAHLRAWTVERKRPGRLLRTDRQPLREYKLGRRIEICLEPLQKGENLGPQDVLLRTQVRIPGERTYAPALDLVWNAAQGGTAGSLRQRVADFYRLPVEKIEIAKYFPEKFEWLPISSWNQQITKRKKKKKQDYLQGAPYYLKDGDTIGVKNLLIDDDDDFSTIRDDTGKEKQKQRALGRRKSQEALHEQSSYILSSAETPARPRAPETSLSIHVGSFR

Reference: paper PMC10907362
